Results published in US11883455B2, “Nigella sativa oil composition” (N.S. OILS LTD., priority 2018, dated 2024).
At least one compound was matched to its structure with a doubt left.

System: production of nitric oxide (NO) by murine macrophages (RAW 264.7 cell line) activated by lipopolysaccharide (LPS)
Assay: Nitric oxide (NO) release by LPS-activated RAW 264.7 macrophages, Griess Reagent System
Type: cell-based
Conditions: NS oils diluted 1:10,000; dexamethasone 20 μM; 22 hours with LPS 5 ng/ml; FIG. 1; p<0.001
Experimental: In addition, positive control cells were treated with 20 μM dexamethasone.

For `C[C@@H]1C[C@H]2[C@@H]3CCC4=CC(=O)C=C[C@]4(C)[C@@]3(F)[C@@H](O)C[C@]2(C)[C@@]1(O)C(=O)CO` [dexamethasone], the “reduction in NO release as compared to the LPS-only treatment” value was “significant reduction in NO release”.
